Measurements from publication doi:10.1101/2024.07.15.603577.
These are yes or no findings as the source states them, for the method shown. Binding can be weak; no strength is given. For some of these results: Binding seen in cells or lysates may run through a third protein. For some of these results: Tags and fused reporters may be left off the sequences shown. Each block holds one substance with its values, some of them ahead of it.

By UniProt entry, the sequences of proteins in these tests, tags left out. Where a name states a change or a piece, a line headed by the entry shows the natural chain unless it says otherwise.
UniProt Q5VNK1: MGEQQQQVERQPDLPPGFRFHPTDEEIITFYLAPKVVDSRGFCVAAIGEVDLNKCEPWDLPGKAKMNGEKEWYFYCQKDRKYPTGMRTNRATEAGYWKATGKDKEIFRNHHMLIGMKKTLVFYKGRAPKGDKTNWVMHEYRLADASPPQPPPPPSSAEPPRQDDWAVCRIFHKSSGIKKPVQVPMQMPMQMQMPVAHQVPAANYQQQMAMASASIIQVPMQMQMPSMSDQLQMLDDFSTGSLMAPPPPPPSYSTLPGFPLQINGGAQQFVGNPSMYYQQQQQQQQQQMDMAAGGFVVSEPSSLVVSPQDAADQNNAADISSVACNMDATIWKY
UniProt Q6H8A9: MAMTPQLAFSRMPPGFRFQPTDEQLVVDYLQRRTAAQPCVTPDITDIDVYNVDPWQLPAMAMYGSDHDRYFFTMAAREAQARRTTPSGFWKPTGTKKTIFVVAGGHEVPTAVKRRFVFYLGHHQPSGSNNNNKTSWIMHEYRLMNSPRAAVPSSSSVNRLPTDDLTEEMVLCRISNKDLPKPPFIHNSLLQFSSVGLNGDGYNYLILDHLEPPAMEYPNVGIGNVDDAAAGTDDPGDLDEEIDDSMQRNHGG
UniProt Q9FTY0: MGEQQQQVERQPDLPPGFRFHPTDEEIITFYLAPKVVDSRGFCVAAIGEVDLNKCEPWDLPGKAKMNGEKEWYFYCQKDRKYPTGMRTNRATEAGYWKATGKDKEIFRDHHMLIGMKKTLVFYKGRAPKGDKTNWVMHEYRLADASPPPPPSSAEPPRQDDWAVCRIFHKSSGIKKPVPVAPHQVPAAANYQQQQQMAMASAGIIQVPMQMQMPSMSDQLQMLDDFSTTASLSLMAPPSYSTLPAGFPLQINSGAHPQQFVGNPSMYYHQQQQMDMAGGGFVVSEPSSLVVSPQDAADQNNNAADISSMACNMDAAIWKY
UniProt Q7XWV4: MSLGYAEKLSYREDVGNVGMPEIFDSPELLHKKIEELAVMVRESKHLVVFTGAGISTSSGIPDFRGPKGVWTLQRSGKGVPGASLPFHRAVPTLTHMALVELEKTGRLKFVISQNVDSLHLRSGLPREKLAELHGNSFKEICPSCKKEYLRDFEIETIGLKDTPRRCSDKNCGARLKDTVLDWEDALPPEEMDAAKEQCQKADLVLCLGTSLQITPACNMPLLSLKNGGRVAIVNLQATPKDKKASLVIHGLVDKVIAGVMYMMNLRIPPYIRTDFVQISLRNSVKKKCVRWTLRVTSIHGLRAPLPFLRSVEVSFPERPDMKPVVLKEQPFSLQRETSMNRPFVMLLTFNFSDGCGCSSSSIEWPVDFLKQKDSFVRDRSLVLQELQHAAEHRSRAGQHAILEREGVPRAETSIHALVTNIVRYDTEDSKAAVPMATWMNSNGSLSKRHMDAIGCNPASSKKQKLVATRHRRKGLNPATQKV

How the values were obtained:
[1] = biological target: MBP_ONAC026 (rice (Oryza sativa)) (UniProt Q5VNK1); assay: pull-down
[2] = biological target: MBP_ONAC023 (rice (Oryza sativa)) (UniProt Q6H8A9); assay: pull-down
[3] = biological target: MBP_OsTPL (rice (Oryza sativa)) (UniProt Q0J7U6); assay: pull-down
[4] = biological target: MBP_ZOS1-15 (rice (Oryza sativa)) (UniProt B7F136); assay: pull-down
[5] = biological target: GST_ONAC026 (rice (Oryza sativa)) (UniProt Q5VNK1); assay: pull-down
[6] = biological target: GST_ONAC020 (rice (Oryza sativa)) (UniProt Q9FTY0); assay: pull-down
[7] = biological target: GST_ZOS1-15 (rice (Oryza sativa)) (UniProt B7F136); assay: pull-down
[8] = biological target: T1, TPL_MYC (rice (Oryza sativa)) (UniProt Q0J7U6); assay: co-IP
T1 sequence: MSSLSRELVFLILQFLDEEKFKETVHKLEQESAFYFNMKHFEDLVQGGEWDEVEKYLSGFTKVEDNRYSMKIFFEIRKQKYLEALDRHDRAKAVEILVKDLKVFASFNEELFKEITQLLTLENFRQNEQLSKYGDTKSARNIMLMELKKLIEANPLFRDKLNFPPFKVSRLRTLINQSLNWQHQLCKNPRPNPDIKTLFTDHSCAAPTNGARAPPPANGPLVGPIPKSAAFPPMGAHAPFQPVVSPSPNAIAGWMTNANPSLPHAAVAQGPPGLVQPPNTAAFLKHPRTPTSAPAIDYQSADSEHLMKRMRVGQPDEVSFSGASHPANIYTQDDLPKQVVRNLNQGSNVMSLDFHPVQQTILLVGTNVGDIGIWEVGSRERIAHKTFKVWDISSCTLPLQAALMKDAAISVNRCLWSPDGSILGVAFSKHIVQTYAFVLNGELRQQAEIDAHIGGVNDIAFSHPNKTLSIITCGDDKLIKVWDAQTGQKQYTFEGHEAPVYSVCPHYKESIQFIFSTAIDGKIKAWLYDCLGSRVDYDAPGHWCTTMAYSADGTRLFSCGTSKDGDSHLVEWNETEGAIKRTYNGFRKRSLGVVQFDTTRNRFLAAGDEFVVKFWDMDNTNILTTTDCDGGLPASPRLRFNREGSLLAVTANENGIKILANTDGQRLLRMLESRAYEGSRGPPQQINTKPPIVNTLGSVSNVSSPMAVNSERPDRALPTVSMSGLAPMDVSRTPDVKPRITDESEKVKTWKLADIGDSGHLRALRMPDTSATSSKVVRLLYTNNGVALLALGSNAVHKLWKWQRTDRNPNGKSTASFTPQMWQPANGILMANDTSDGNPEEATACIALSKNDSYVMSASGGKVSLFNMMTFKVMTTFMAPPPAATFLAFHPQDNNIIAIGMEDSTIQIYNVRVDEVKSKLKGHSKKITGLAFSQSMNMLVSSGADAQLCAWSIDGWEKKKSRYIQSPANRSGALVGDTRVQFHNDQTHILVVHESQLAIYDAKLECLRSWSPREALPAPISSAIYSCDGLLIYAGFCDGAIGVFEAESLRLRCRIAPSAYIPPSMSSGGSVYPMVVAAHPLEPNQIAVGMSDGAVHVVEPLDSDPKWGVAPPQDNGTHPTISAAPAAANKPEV

[9] = biological target: T2, OsTPL (rice (Oryza sativa)) (UniProt Q0J7U6); assay: two-hybrid
T2 sequence: T1 sequence

[10] = biological target: SRT701 (rice (Oryza sativa)) (UniProt Q7XWV4); assay: two-hybrid

Substance: GST_ONAC020 (from UniProt Q9FTY0)
binding [1]: binds

Substance: GST_ONAC026 (from UniProt Q5VNK1)
binding [2]: binds

Substance: GST_ZOS1-15 (from UniProt B7F136)
binding [3]: binds | binding [4]: binds

Substance: YFP_ZOS1-15 (rice (Oryza sativa))
binding [8]: binds

Next, values leading:

binding [5]: binds
Substance: MBP_ONAC023 (from UniProt Q6H8A9)

binding [6]: binds
Substance: MBP_ONAC026 (from UniProt Q5VNK1)

binding [7]: binds
Substance: MBP_ZOS1-15 (from UniProt B7F136)

binding [9]: binds | binding [10]: binds
Substance: ZOS1-15 (from UniProt B7F136)
